{
  "source": "patent US20040167074A1",
  "about": "“Therapeutic applications of mFLINT polypeptides” (priority 1998, published 2004)",
  "molecules": {"B1": {"name": "FLINT protein: FLINT-FLAG expressed from Apo E promoter/HCR transgene in line 6494 transgenic mice (protein)", "chain": "VAETPTYPWRDAETGERLVCAQCPPGTFVQRPCRRDSPTTCGPCPPRHYTQFWNYLERCRYCNVLCGEREEEARACHATHNRACRCRTGFFAHAGFCLEHASCPPGAGVIAPGTPSQNTQCQPCPPGTFSASSSSSEQCQPHRNCTALGLALNVPGSSSHDTLCTSCTGFPLSTRVPGAEECERAVIDFVAFQDISIKRLQRLLQALEAPEGWGPTPRAGRAALQLKLRRRLTELLGAQDGALLVRLLQALRVARMPGLERSVRERFLPVH", "modifications": "glycosylated", "notes": "FLINT-FLAG expressed from Apo E promoter/HCR transgene in line 6494 transgenic mice"}},
  "type": "in vivo, mouse",
  "description": "These animals are also useful in further delineating useful treatment protocols for the conditions set out above. Transgene construction. […] The 5' primer, [NT], a BglII restriction site and the 3' primer, [NT], contained an SpeI restriction enzyme site. These were used to amplify the entire FLINT and FLAG coding region. The amplified 1.1 kb fragment was ligated into the multiple cloning site of plasmid […]2 generating plasmid […] (6.7 kb). See Fox et al, Eur. J. Pharmacol. 308:195 (1996). The FLINT gene fragment was excised from […] by BglII and SpeI digestion and gel-purified. This fragment then was blunted with Klenow enzyme and ligated into the Klenow-blunted MluI site of plasmid pLIV.7, provided by John Taylor of the J. David Gladstone Institutes. See Fan et al., Proc. Nat'l Acad. Sci. 91:8724 (1994). Resultant plasmid […] also contains the apo E gene promoter/5' flanking region and an hepatic enhancer sequences called the “hepatic control region” (HCR). […] Broad tissue expression was detected in line 6494 progeny by Northern blot, RT-PCR (TaqMan), Western blot and immunohistochemical analysis and was highest in the liver and kidney. High levels of FLINT protein were detected in the circulation of line 6494 mice by ELISA assay; founder level=490 ng/ml; progeny levels ranged from 285-1360 ng/ml (n=6). No endogenous FLINT was detected by these analyses.",
  "data": [
    {"molecule": "B1", "values": [
      {"measurement": "FLINT protein level in the circulation by ELISA, founder", "setting": "line 6494 founder", "value": 490, "unit": "ng/mL"},
      {"measurement": "FLINT protein level in the circulation by ELISA, progeny", "setting": "line 6494 progeny (n=6)", "value": "285 to 1360", "unit": "ng/mL"}
    ]}
  ]
}
